Our source for the AC50 values is PubChem BioAssay AID493014 (National Center for Advancing Translational Sciences (NCATS), 2011).

The assay in a line: qHTS Assay to Find Inhibitors of Chronic Active B-Cell Receptor Signaling. The note with it: ABC-DLBCL IkBa-CBG/CBR reporter, luminescence ratio (green luciferase fused to IkBa over red control in TMD8 lymphoma cells), 4 h. A digest of the protocol:
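Compounds up to 46 uM were incubated four hours with TMD8 cells whose green CBG68 luciferase is fused to IkappaBalpha; red CBR luminescence normalised the signal, and concentration-effect curves were fitted to fusion, red and ratio data.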

Setting [1] is: measured here: CBR red luminescence, cell number.
Setting [2] is: measured here: IkBa-CBG green luminescence.

Each structure is given as a SMILES string. The list shows a part of the results. Further columns of the screen follow, without active or inactive calls. Compounds called inactive in the main read-out are mostly missing here. Potencies come from curve fits of mixed quality, noted in brackets.

Take `O=C(c1ccccc1O)N1N=C(C(F)(F)F)CC1(O)c1ccc([N+](=O)[O-])cc1` (configuration not stated): the AC50 under setting [1] was 22.4 µM [falling, single point].

As for `CC(=O)Nc1ccc(Sc2ncccc2C(=O)Nc2ccc(OC(F)(F)F)cc2)cn1`, the AC50 under setting [1] is 6.51 µM [falling, full curve, poor fit].

With `Cc1ccc(Cn2nc(C)c(NC(=O)c3cc(C)no3)c2C)cc1`, the AC50 under setting [1] was 0.731 µM [falling, full curve, poor fit].

Take `O=C(O)CCc1ccc(-c2ccc(Br)cc2)o1`: the AC50 under setting [1] was 35.5 µM [falling, single point].

Take `COc1ccc(C(=O)Nc2nc(N)n(-c3ccccc3)n2)cc1OC`: the AC50 under setting [1] was 6.31 µM [rising, partial curve, poor fit].

For `CCOC(=O)C1=C(N)Oc2ccc3ccccc3c2C1c1ccc(O)c(OC)c1` (configuration not stated), the AC50 under setting [1] is 35.5 µM [falling, single point] and the AC50 under setting [2] is 14.1 µM [falling, partial curve, poor fit].

As to `CNC(=O)C1CC(=O)N(CCCc2ccccc2)C(=Nc2ccccc2)S1` (configuration not stated), the AC50 under setting [1] is 11.6 µM [falling, partial curve, poor fit].

For the compound `Cc1cccc(C(=O)NCC(=O)OCCOc2ccccc2Cl)c1`, the AC50 under setting [1] was 25.9 µM [rising, single point].

In the case of `COc1ccc(OC(=O)NCCc2ccccc2)cc1`, under setting [1], the AC50 was 35.5 µM [falling, single point].

For the compound `COc1ccc(OCCCC(=O)Nc2nc(-c3ccccn3)cs2)cc1`, the AC50 under setting [2] is 25.1 µM [falling, single point].

Regarding `COc1ccc(-n2nnnc2SCC(=O)c2cccc(OC)c2)cc1`, the AC50 under setting [2] is 29.1 µM [falling, single point].

Regarding `O=C(O)c1ccc(/C=N/n2cc(-c3ccccc3)[nH]c2=S)cc1`, the AC50 under setting [1] is 10 µM [falling, partial curve, poor fit].

`CN(C)CC(c1ccccc1)c1ccccc1`: the AC50 under setting [1] is 2.82 µM [falling, full curve, poor fit].

Consider `O=C(NCc1ccncc1)c1cc(-c2ccc(Cl)cc2)oc1C(F)(F)F`, for which the AC50 under setting [1] was 12.6 µM [rising, partial curve, poor fit].

On to `CCOC(=O)N1CCC(NC(=O)c2ccc3c(c2)N(Cc2ccccc2)CCS3)CC1`, for which the AC50 under setting [1] was 5.8 µM [falling, single point].

As for `Cn1c(=O)n(C)c2cc(N3CCOCC3)c(NC(=O)c3cccc(Cl)c3)cc21`, the AC50 under setting [1] is 2.82 µM [rising, partial curve, poor fit].

As to `CC(=O)N1CCN(S(=O)(=O)c2c(F)cc(F)c(Cl)c2F)CC1`, the AC50 under setting [1] was 35.5 µM [rising, partial curve, poor fit].

Turning to `COc1cc(/C=C\C(=O)OCn2nnc3ccccc3c2=O)cc(OC)c1OC`, the AC50 under setting [1] was 6.31 µM [rising, partial curve] and the half-maximal activity concentration (AC50) under setting [2] is 12.6 µM [falling, partial curve, poor fit].

In the case of `Cc1ccc(-n2nc(C)c3c(C)cc(=O)[nH]c32)cc1`, the AC50 under setting [1] was 18.4 µM [falling, single point].

For `CCOc1cccc(CN2CCCC(C(=O)Nc3cccc(-n4cccn4)c3)C2)c1` (configuration not stated), the AC50 under setting [1] was 15.8 µM [falling, single point].

As for `COCCN1C=C2C(=O)C(C)(OC(=O)c3cccs3)C(=O)C=C2C=C1CCCC(=O)OC` (configuration not stated), the AC50 under setting [1] was 0.316 µM [rising, full curve, poor fit].

As for `Cc1ccc(C(=O)c2nocc2C(=O)c2cccs2)cc1`, the AC50 under setting [1] was 14.1 µM [rising, partial curve, poor fit].

Turning to `CCc1nnc(NS(=O)(=O)c2ccc(NC(=S)NC(=O)/C=C/c3ccccc3)cc2)s1`, the AC50 under setting [1] is 29.1 µM [falling, single point].

Take `O=C(CSc1nncn1-c1cccnc1)N1CCOCC1`: under setting [1], the AC50 was 5.8 µM [rising, single point].

In the case of `COc1ccc(CC(=O)NC(C)c2nnc(SCCC(=O)Nc3ccccc3)n2C)cc1` (configuration not stated), under setting [1], the AC50 is 0.282 µM [falling, full curve, poor fit].

For the compound `Cc1cccc(NC2=C(C#N)C(=O)NC3(CCCC3)S2)c1`, the AC50 under setting [2] is 25.1 µM [falling, partial curve, poor fit].

Take `COC(=O)CCCC(=O)Nc1ccc(Cl)c(Cl)c1`: the AC50 under setting [1] is 6.51 µM [rising, partial curve, poor fit].

With `CCc1ccc(NC(=O)C2=CC=CN3CCS(=O)(=O)N=C23)cc1`, the AC50 under setting [1] is 13 µM [rising, partial curve].

In the case of `CCOc1ccc2nc(SC3CC(=O)N(c4ccc(OC)cc4OC)C3=O)sc2c1` (configuration not stated), the AC50 is, setting by setting: under setting [1], 8.91 µM [rising, partial curve, poor fit]; under setting [2], 3.16 µM [falling, partial curve, poor fit].

With `O=C(/C=C/c1ccco1)Nc1nnc(-c2ccco2)s1`, the half-maximal activity concentration (AC50) under setting [1] was 10 µM [falling, single point].

`Cc1ccc(CNC(=O)[C@H]2C[C@@H]2[C@H](NP(=O)(c2ccccc2)c2ccccc2)c2ccccc2)o1`: the AC50 under setting [1] is 8.2 µM [falling, partial curve].

In the case of `O=C1NC2(NN1c1ccccc1)C1CC3CC(C1)CC2C3` (configuration not stated), the AC50 under setting [1] is 14.6 µM [rising, single point].

On to `COc1cc(OC)cc(C(=O)N[C@H](C(=O)NCc2ccccc2)C(C)C)c1`, for which the AC50 under setting [1] is 11.2 µM [rising, single point].

In the case of `c1ccc(Cn2nnc3c(N4CCc5ccccc5C4)ncnc32)cc1`, the AC50 under setting [2] was 11.2 µM [rising, partial curve, poor fit].

On to `O=C(/C=C/c1ccccc1Cl)c1cccnc1`, for which the AC50 was 32.6 µM [rising, single point] under setting [1] and 29.1 µM [falling, partial curve, poor fit] under setting [2].

With `COc1cccc(C(=O)N2CCC(CCC(=O)Nc3cccc(C)c3)CC2)c1`, the AC50 under setting [1] is 1 µM [falling, full curve, poor fit].

Regarding `Cc1ccccc1C(=O)N/N=C/c1ccsc1C`, the AC50 under setting [1] was 13 µM [falling, partial curve, poor fit].

`CC(C)C[C@@H](COc1ccccc1)N1CCN(Cc2ccccc2)CCC1=O`: the AC50 under setting [1] was 12.6 µM [falling, single point].

Regarding `CCc1nc2ccccc2c(C(=O)OCC(=O)NC(=O)c2cccn2C)c1C`, the AC50 under setting [1] was 22.4 µM [falling, single point].

With `CC(=O)N1c2ccc(C)cc2C(c2ccccc2)CC1C` (configuration not stated), the AC50 by setting is: under setting [1], 12.6 µM [rising, partial curve, poor fit]; under setting [2], 10 µM [falling, partial curve].

Consider `CCOC(=O)N1CCN(/C=C(\C#N)c2nc3ccccc3s2)CC1`, for which the AC50 under setting [1] was 22.4 µM [falling, single point].

For the compound `CCOC(=O)c1c(CN(C)C)oc2cc(CN(C)C)c(O)c(CSc3ccccc3)c12`, the AC50 under setting [1] was 11.2 µM [falling, partial curve, poor fit].

`Cc1nc2ccc(NC(=S)NCc3ccccc3)cc2nc1C`: the AC50 under setting [1] was 35.5 µM [falling, single point].

For the compound `COc1ccc(C(=O)NC2=NCCS2)c(OC)c1`, under setting [1], the AC50 was 35.5 µM [falling, single point].

As for `COc1ccc(S(=O)(=O)Oc2ccc3ccccc3c2)cc1`, the AC50 under setting [1] was 1.3 µM [rising, partial curve, poor fit].

Turning to `COc1ccc2cc(C(=O)C3CCCN(Cc4cnc(C)s4)C3)ccc2c1` (configuration not stated), the AC50 under setting [1] was 7.94 µM [falling, partial curve].

For the compound `O=S(=O)(Nc1ccc(O)c(Sc2nc3ccccc3s2)c1)c1cccc2ccccc12`, the AC50 under setting [1] was 29.1 µM [falling, single point].

For the compound `Clc1cc(-c2ccc(/C=N/n3cnnc3)o2)ccc1Br`, the AC50 under setting [1] was 7.08 µM [falling, full curve, poor fit].

Consider `COc1ccc(OCCOc2ccc(C)nc2[N+](=O)[O-])cc1`, for which the AC50 under setting [1] is 1.84 µM [rising, full curve].

As for `Cc1cc(Oc2nc3c(C)cccn3c(=O)c2/C=C(\C#N)S(=O)(=O)c2ccccc2)ccc1Cl`, the concentration at half-maximal activity (AC50) under setting [1] is 2.91 µM [falling, full curve].

In the case of `CCn1nnc2cc(C(=O)Nc3cc(S(C)(=O)=O)ccc3Cl)ccc21`, the AC50 under setting [1] was 20 µM [rising, partial curve, poor fit].

For the compound `COc1ccc(CCNC(=O)C(=O)NCCCN2CCOCC2)cc1`, the AC50 under setting [1] is 6.31 µM [falling, partial curve, poor fit].

Regarding `C(=N\Nc1nc(-c2ccccc2)cs1)/c1ccco1`, the AC50 under setting [1] is 7.31 µM [falling, partial curve].

Regarding `COc1cc(CNCCO)cc(Cl)c1OCc1ccccc1Cl`, the AC50 under setting [1] is 22.4 µM [falling, single point].

Take `O=c1[nH]c(O)c(/C=C2\C=Nc3ccccc32)[nH]1`: the AC50 under setting [1] was 20 µM [falling, single point].

For `O=[N+]([O-])c1ccc2[nH]ncc2c1`, the AC50 under setting [1] was 6.31 µM [rising, partial curve, poor fit].

`CC(=O)c1ccc(NC(=O)c2ccc(C)c(Br)c2)cc1`: under setting [1], the AC50 was 3.98 µM [falling, full curve, poor fit].

With `O=C(/C=C/c1ccc2c(c1)OCO2)NCCSCc1cccc(Cl)c1`, under setting [1], the AC50 was 10 µM [falling, partial curve, poor fit].

With `Cc1nc(-c2cccc(Cl)c2)n[nH]1`, the AC50 under setting [1] was 2.82 µM [rising, full curve, poor fit].

Consider `CCOC(=O)c1cnc(Nc2nc3ccccc3o2)nc1CSC(=S)N1CCCCC1`, for which the AC50 under setting [2] is 1.84 µM [falling, partial curve, poor fit].

`CC(C)c1c(C(=O)N/N=C/c2cccc(OCc3ccc(F)cc3)c2)nnn1-c1nonc1N`: under setting [1], the AC50 was 0.1 µM [rising, full curve, poor fit].

For `Cc1ccc(C(=O)NNC(=O)c2nn(-c3ccc(F)cc3)ccc2=O)cc1`, under setting [1], the AC50 is 12.6 µM [rising, partial curve, poor fit].
